Read-outs that look alike come from different tables or passages of the source. No constants are given. Whether binding was seen depends on the method and setting. Binding seen in cells or lysates may run through a third protein. Here binding means that the protein was enriched with, or labelled near, the bait; the list need not be complete.
Tests used:
[1] = biological target: His6-Strep-AMP-Rlig1 (human RNA ligase 1, AMPylated) (human) (UniProt Q8N999); assay: affinity purification with mass spectrometry; His6-Strep-Rlig1 variant on Strep-Tactin Superflow beads; RNase If digested lysate of HEK293 Rlig1-KO cells (unstressed, or 40 uM menadione for 1 h), 20 h, 4°C; washing buffer 25 mM Tris pH 7.5, 50 mM NaCl, 1 mM DTT; elution with biotin; label-free DIA MS against an uncharged bead control; only the target purified
[2] = biological target: His6-Strep-AMP-Rlig1 (human RNA ligase 1, AMPylated) (human) (UniProt Q8N999); assay: as above; remark: listed apart in the source
[3] = biological target: His6-Strep-K57A-Rlig1 (human) (UniProt Q8N999); assay: affinity purification with mass spectrometry; as a1, but only the lysate of menadione-treated (40 uM, 1 h) HEK293 Rlig1-KO cells; only the target purified

Amino acid sequences for entries named in this document (tags omitted). Residues count along the entry.
UniProt P29372, residues 18-298: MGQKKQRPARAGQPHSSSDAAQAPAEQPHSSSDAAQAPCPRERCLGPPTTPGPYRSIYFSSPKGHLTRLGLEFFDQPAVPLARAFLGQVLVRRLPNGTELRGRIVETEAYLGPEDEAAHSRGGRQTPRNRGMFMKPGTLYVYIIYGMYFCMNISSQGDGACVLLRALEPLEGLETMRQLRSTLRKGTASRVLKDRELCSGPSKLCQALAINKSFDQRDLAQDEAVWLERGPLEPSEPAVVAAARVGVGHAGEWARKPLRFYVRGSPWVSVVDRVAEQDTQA
UniProt P27695: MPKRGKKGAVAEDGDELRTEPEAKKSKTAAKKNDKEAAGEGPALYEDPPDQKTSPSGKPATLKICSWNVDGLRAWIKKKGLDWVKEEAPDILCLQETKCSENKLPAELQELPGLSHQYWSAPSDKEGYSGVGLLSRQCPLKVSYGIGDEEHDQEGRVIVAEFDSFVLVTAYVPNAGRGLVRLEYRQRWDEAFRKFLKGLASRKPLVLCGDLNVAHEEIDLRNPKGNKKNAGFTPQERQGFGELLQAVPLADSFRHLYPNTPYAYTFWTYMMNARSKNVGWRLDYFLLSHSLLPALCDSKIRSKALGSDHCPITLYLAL

Molecule	binding [1]	binding [2]	binding [3]
glycosylase MPG (from UniProt P29372 18-298)	binds	–	–
endonuclease APE1 (from UniProt P27695 1-318)	binds	–	–
DIS3, the catalytically active subunit of the exosome complex (protein, UniProt Q9Y2L1 1-958) MLKSKTFLKKTRAGGVMKIVREHYLRDDIGCGAPGCAACGGAHEGPALEPQPQDPASSVCPQPHYLLPDTNVLLHQIDVLEDPAIRNVIVLQTVLQEVRNRSAPVYKRIRDVTNNQEKHFYTFTNEHHRETYVEQEQGENANDRNDRAIRVAAKWYNEHLKKMSADNQLQVIFITNDRRNKEKAIEEGIPAFTCEEYVKSLTANPELIDRLACLSEEGNEIESGKIIFSEHLPLSKLQQGIKSGTYLQGTFRASRENYLEATVWIHGDNEENKEIILQGLKHLNRAVHEDIVAVELLPKSQWVAPSSVVLHDEGQNEEDVEKEEETERMLKTAVSEKMLKPTGRVVGIIKRNWRPYCGMLSKSDIKESRRHLFTPADKRIPRIRIETRQASTLEGRRIIVAIDGWPRNSRYPNGHFVRNLGDVGEKETETEVLLLEHDVPHQPFSQAVLSFLPKMPWSITEKDMKNREDLRHLCICSVDPPGCTDIDDALHCRELENGNLEVGVHIADVSHFIRPGNALDQESARRGTTVYLCEKRIDMVPELLSSNLCSLKCDVDRLAFSCIWEMNHNAEILKTKFTKSVINSKASLTYAEAQLRIDSANMNDDITTSLRGLNKLAKILKKRRIEKGALTLSSPEVRFHMDSETHDPIDLQTKELRETNSMVEEFMLLANISVAKKIHEEFSEHALLRKHPAPPPSNYEILVKAARSRNLEIKTDTAKSLAESLDQAESPTFPYLNTLLRILATRCMMQAVYFCSGMDNDFHHYGLASPIYTHFTSPIRRYADVIVHRLLAVAIGADCTYPELTDKHKLADICKNLNFRHKMAQYAQRASVAFHTQLFFKSKGIVSEEAYILFVRKNAIVVLIPKYGLEGTVFFEEKDKPNPQLIYDDEIPSLKIEDTVFHVFDKVKVKIMLDSSNLQHQKIRMSLVEPQIPGISIPTDTSNMDLNGPKKKKMKLGK	–	binds	binds
ANGEL2 (protein, UniProt Q5VTE6 1-544) MEAWRCVRKGYGHCVVGRGRYPMFPHHSRSLGRDWTTPWENLQRCCWNRHISSCMRWPGHYSRAPYPYFSSRHFSLNWRPPCLFESRTQFQYCNWRPDNLSQTSLIHLSSYVMNAEGDEPSSKRRKHQGVIKRNWEYICSHDKEKTKILGDKNVDPKCEDSENKFDFSVMSYNILSQDLLEDNSHLYRHCRRPVLHWSFRFPNILKEIKHFDADVLCLQEVQEDHYGAEIRPSLESLGYHCEYKMRTGRKPDGCAICFKHSKFSLLSVNPVEFFRPDISLLDRDNVGLVLLLQPKIPYAACPAICVANTHLLYNPRRGDIKLTQLAMLLAEISSVAHQKDGSFCPIVMCGDFNSVPGSPLYSFIKEGKLNYEGLPIGKVSGQEQSSRGQRILSIPIWPPNLGISQNCVYEVQQVPKVEKTDSDLTQTQLKQTEVLVTAEKLSSNLQHHFSLSSVYSHYFPDTGIPEVTTCHSRSAITVDYIFYSAEKEDVAGHPGAEVALVGGLKLLARLSLLTEQDLWTVNGLPNENNSSDHLPLLAKFRLEL	–	binds	–
CLP1 (protein, UniProt Q92989 1-425) MGEEANDDKKPTTKFELERETELRFEVEASQSVQLELLTGMAEIFGTELTRNKKFTFDAGAKVAVFTWHGCSVQLSGRTEVAYVSKDTPMLLYLNTHTALEQMRRQAEKEEERGPRVMVVGPTDVGKSTVCRLLLNYAVRLGRRPTYVELDVGQGSVSIPGTMGALYIERPADVEEGFSIQAPLVYHFGSTTPGTNIKLYNKITSRLADVFNQRCEVNRRASVSGCVINTCGWVKGSGYQALVHAASAFEVDVVVVLDQERLYNELKRDLPHFVRTVLLPKSGGVVERSKDFRRECRDERIREYFYGFRGCFYPHAFNVKFSDVKIYKVGAPTIPDSCLPLGMSQEDNQLKLVPVTPGRDMVHHLLSVSTAEGTEENLSETSVAGFIVVTSVDLEHQVFTVLSPAPRPLPKNFLLIMDIRFMDLK	–	binds	–

From paper PMC13244148
